Values from PubChem BioAssay AID1259254 (NCATS, 2017).

Screen: 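Finding genes that stop cells copying their DNA twice in one cycle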 (primary screen)
Cell system: human HCT116 colorectal cancer cells
Reagents: single siRNA against human genes
Timing: 3 days
Measured: 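Nuclei stained with Hoechst and imaged; cell-cycle phase assigned by DNA content; G2 share scaled per plate, non-targeting siRNA 0%, GMNN siRNA 100%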
Reading the numbers: G2 robust z-score and G2 cells, % of GMNN control: higher = more G2 cells, more excess DNA replication
Call rule: 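Active siRNAs have a G2 robust z of 5 or more median absolute deviations over the median, which in these data means about 38% or higher of GMNN control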
Here is a random part of about 59,000 reagents. About 1,550 of all reagents (2.6%) were called active. 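G2 share is only a proxy for re-replication; each gene was hit by three separate siRNAs, and active genes were retested.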 The numbers tell different reagents against one gene apart. Not all columns of the deposit are shown. The record does not give: the amount of reagent.

After knock-down of LOC728445 (retired record) #1 the results were G2 robust z-score -1.11; G2 cells, % of GMNN control -4.85; inactive. Silencing of LOC728445 (retired record) #2 resulted in: G2 robust z-score 0.984; G2 cells, % of GMNN control 9.89; inactive. Knock-down of LOC728445 (retired record) #3 gave: G2 robust z-score 0.53; G2 cells, % of GMNN control 6.69; inactive. Depletion of PIGH (phosphatidylinositol glycan anchor biosynthesis class H) #1 resulted in: G2 robust z-score 4.03; G2 cells, % of GMNN control 31.3; inactive. PIGH (phosphatidylinositol glycan anchor biosynthesis class H) #2 scored G2 robust z-score 3.23; G2 cells, % of GMNN control 25.7; inactive. Against PIGH (phosphatidylinositol glycan anchor biosynthesis class H) #3, the values are G2 robust z-score 2.81; G2 cells, % of GMNN control 22.7; inactive.

For EIF4B (eukaryotic translation initiation factor 4B) #1, the entry reads G2 robust z-score 1.12; G2 cells, % of GMNN control 10.9; inactive. EIF4B (eukaryotic translation initiation factor 4B) #2 showed G2 robust z-score 3.91; G2 cells, % of GMNN control 30.5; inactive. For EIF4B (eukaryotic translation initiation factor 4B) #3, the values are G2 robust z-score -0.555; G2 cells, % of GMNN control -0.94; inactive. Silencing of RSPH1 (radial spoke head component 1) #1 gave: G2 robust z-score -0.823; G2 cells, % of GMNN control -2.82; inactive. Knock-down of RSPH1 (radial spoke head component 1) #2 gave: G2 robust z-score -0.401; G2 cells, % of GMNN control 0.143; inactive. Knock-down of RSPH1 (radial spoke head component 1) #3 gave: G2 robust z-score -0.377; G2 cells, % of GMNN control 0.312; inactive.

Single entries from the entries so far:
Entry of LOC728445 (retired record) #2 under “G2 robust z-score”: 0.984
Value of PIGH (phosphatidylinositol glycan anchor biosynthesis class H) #3 in “G2 robust z-score”: 2.81
Under “outcome”, RSPH1 (radial spoke head component 1) #1 is entered as inactive
Value of EIF4B (eukaryotic translation initiation factor 4B) #3 in “outcome”: inactive

The listing continues.
With knock-down of CNR1 (cannabinoid receptor 1) #1, the screen gave G2 robust z-score -0.547; G2 cells, % of GMNN control -0.882; inactive. After knock-down of CNR1 (cannabinoid receptor 1) #2, the screen gave G2 robust z-score 3.2; G2 cells, % of GMNN control 25.5; inactive. Knock-down of CNR1 (cannabinoid receptor 1) #3 came out at: G2 robust z-score -0.000675; G2 cells, % of GMNN control 2.96; inactive. With knock-down of GIPC1 (GIPC PDZ domain containing family member 1) #1, the record shows G2 robust z-score -1.08; G2 cells, % of GMNN control -4.66; inactive. GIPC1 (GIPC PDZ domain containing family member 1) #2 scored G2 robust z-score -0.899; G2 cells, % of GMNN control -3.36; inactive. With knock-down of GIPC1 (GIPC PDZ domain containing family member 1) #3 the results were G2 robust z-score 2.56; G2 cells, % of GMNN control 21; inactive.

After knock-down of N4BP3 (NEDD4 binding protein 3) #1, the record shows G2 robust z-score -0.561; G2 cells, % of GMNN control -0.982; inactive. After knock-down of N4BP3 (NEDD4 binding protein 3) #2 the results were G2 robust z-score -0.237; G2 cells, % of GMNN control 1.3; inactive. Silencing of N4BP3 (NEDD4 binding protein 3) #3 gave: G2 robust z-score -0.182; G2 cells, % of GMNN control 1.69; inactive. Against TBC1D20 (TBC1 domain family member 20) #1, the entry reads G2 robust z-score -0.968; G2 cells, % of GMNN control -3.84; inactive. TBC1D20 (TBC1 domain family member 20) #2 gave G2 robust z-score -0.0646; G2 cells, % of GMNN control 2.51; inactive. Against TBC1D20 (TBC1 domain family member 20) #3, the entry reads G2 robust z-score -0.446; G2 cells, % of GMNN control -0.172; inactive.

For SHC1 (SHC adaptor protein 1) #1, the values are G2 robust z-score 1.25; G2 cells, % of GMNN control 11.7; inactive. Silencing of SHC1 (SHC adaptor protein 1) #2 gave: G2 robust z-score 2.3; G2 cells, % of GMNN control 19.1; inactive. After knock-down of SHC1 (SHC adaptor protein 1) #3, the screen gave G2 robust z-score 0.587; G2 cells, % of GMNN control 7.1; inactive. For STARD8 (StAR related lipid transfer domain containing 8) #1 the deposit lists G2 robust z-score -0.853; G2 cells, % of GMNN control -3.04; inactive. Depletion of STARD8 (StAR related lipid transfer domain containing 8) #2 resulted in: G2 robust z-score -0.786; G2 cells, % of GMNN control -2.56; inactive. Against STARD8 (StAR related lipid transfer domain containing 8) #3 the deposit lists G2 robust z-score -0.207; G2 cells, % of GMNN control 1.51; inactive.
